*: point of attachment. Fmoc = O=C(OCC1c2ccccc2-c2ccccc21)*; Palmitoyl = CCCCCCCCCCCCCCCC(=O)*; For = O=C*
Experiments:
[1] = general procedure: Fmoc solid-phase peptide synthesis; Rink amide resin; Bop/HoBt/DIEA; settings: whole synthesis; for crude yield: scale of the general procedure 1 mmole
[2] = general procedure: Fmoc solid-phase peptide synthesis; Fmoc-Rink amide resin (Nova Biochem 01-64-0013); chloro trityl chloride resin (Nova Biochem 01-64-0021); Bop/HoBt/DIEA; settings: whole synthesis; for final HPLC purity: high performance liquid chromatography; for final HPLC purity / isolated yield / crude yield: scale of the general procedure 1 mmole
[3] = general procedure: Fmoc solid-phase peptide synthesis; CTL resin; Bop/HoBt/DIEA; settings: whole synthesis; for crude yield: scale of the general procedure 1 mmole

Substance | crude mass [2] [g] | crude yield [2] [%] | also measured
Ac-YRSRKYTSWY-NH2 |  |  | crude mass [1]: 0.93 g; crude yield [1]: 62.3%; final HPLC purity [2]: 92%; isolated yield [2]: 48%
Ac-YRSRKYTSWY-OH |  |  | crude mass [3]: 0.98 g; crude yield [3]: 65.7%; isolated mass [2]: 0.72 g; final HPLC purity [2]: 96%; isolated yield [2]: 70.9%
Fmoc-YRSRKYTSWY-NH2 |  |  | crude mass [1]: 1.18 g; crude yield [1]: 70.6%
Fmoc-YRSRKYTSWY-OH |  |  | crude mass [3]: 1.3 g; crude yield [3]: 77.7%
For-YRSRKYTSWY-NH2 | 1.03 | 69.7 | 
For-YRSRKYTSWY-OH | 1.28 | 86.6 | 
Myristyl-YRSRKYTSWY-NH2 | 1.26 | 75.2 | 
Myristyl-YRSRKYTSWY-OH | 1.52 | 90.6 | 
Palmitoyl-YRSRKYTSWY-OH | 1.33 | 73.4 | 
Stearyl-YRSRKYTSWY-NH2 | 1.34 | 77.4 | 
Stearyl-YRSRKYTSWY-OH | 1.35 | 77.9 | 

Source: US7939495B2 (Caregen Co., Ltd, priority 2005, dated 2011)
